The text below walks through data of the supplement of paper PMC10735217.

Structures can show the parent of a compound that is named as a salt. Some of the results follow. Single values are uncertain here, since repeats match poorly.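 Human kidney-derived cells stably carry a construct in which eight TEAD-binding elements drive luciferase, measured by luminescence in a drug-repurposing library screen. A hit is any compound whose signal exceeds the plate mean by more than five robust Z scores.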

This test concerns HEK293A TEAD-LUC reporter. In words: TEAD-luciferase reporter activity (YAP activation), robust Z score vs plate; higher = stronger YAP/TEAD activation. The conditions noted are these: 24 h. On the technique in general: A reporter such as luciferase makes a cellular process visible.

Take `Cc1cccc(-c2[nH]c(CNc3ccccc3F)nc2-c2ccc3ncnn3c2)n1`: the TEAD-luciferase reporter activity is inactive: -1.72 (compound concentration: 200 nM), inactive: 2.54 (compound concentration: 2 uM) and inactive: -0.939 (compound concentration: 10 uM).

Regarding `NC(=S)N/N=C/c1ncccc1NC(=O)OCc1cc(F)ccc1OP(=O)(O)O`, the TEAD-luciferase reporter activity was inactive: -1.55 (compound concentration: 200 nM), inactive: -1.2 (compound concentration: 2 uM) and inactive: 0.448 (compound concentration: 10 uM).

Take `O=C(c1cccnc1)N1CCN2C(=O)c3ccncc3C12c1ccc(Cl)cc1` (stereo not given): the TEAD-luciferase reporter activity reads like this: (compound concentration: 200 nM) inactive: -1.09; (compound concentration: 2 uM) inactive: -0.000715; (compound concentration: 10 uM) inactive: 2.42.

Take `Cc1cc(CCCCCOc2c(Cl)cc(C3=NCCO3)cc2Cl)on1`: the TEAD-luciferase reporter activity by setting is: (compound concentration: 200 nM) inactive: -0.694; (compound concentration: 2 uM) inactive: -0.00323; (compound concentration: 10 uM) inactive: 0.845.

`CCOc1cc(CNc2cnnc(O)c2Cl)ccc1OC`: the TEAD-luciferase reporter activity was inactive: 0.181 (compound concentration: 200 nM), inactive: 1.02 (compound concentration: 2 uM) and inactive: -0.486 (compound concentration: 10 uM).

Take `Cc1cnc(Nc2ccc(OCCN3CCCC3)cc2)nc1Nc1cccc(S(=O)(=O)NC(C)(C)C)c1` [Fedratinib]: the TEAD-luciferase reporter activity is inactive: 0.617 (compound concentration: 200 nM), inactive: -0.843 (compound concentration: 2 uM) and inactive: 1.45 (compound concentration: 10 uM).

As for `COc1ccc(CCN(C)CCCN2Cc3cc(OC)c(OC)cc3C2=O)cc1OC` [Falipamil], the TEAD-luciferase reporter activity was inactive: 0.101 (compound concentration: 200 nM), inactive: -0.406 (compound concentration: 2 uM) and inactive: 0.259 (compound concentration: 10 uM).

As to `CC[C@]1(O)C[C@H]2CN(CCc3c([nH]c4ccccc34)[C@@](C(=O)OC)(c3cc4c(cc3OC)N(C)[C@H]3[C@@](O)(C(=O)OC)[C@H](OC(C)=O)[C@]5(CC)C=CCN6CC[C@]43[C@@H]65)C2)C1` [Vinblastine sulfate salt], the TEAD-luciferase reporter activity runs as follows: (compound concentration: 200 nM) inactive: 4.36; (compound concentration: 10 uM) inactive: -0.685.

For the compound `CC[C@]1(O)C[C@H]2CN(CCc3c([nH]c4ccccc34)[C@@](C(=O)OC)(c3cc4c(cc3OC)N(C)[C@H]3[C@@](O)(C(=O)OC)[C@H](OC(C)=O)[C@]5(CC)C=CCN6CC[C@]43[C@@H]65)C2)C1` [Vinblastine sulfate], the TEAD-luciferase reporter activity (compound concentration: 2 uM) is inactive: -0.762.

In the case of `CN(C)Cc1cccc(N/C(=C2\C(=O)Nc3cc(C(=O)N(C)C)ccc32)c2ccccc2)c1`, the TEAD-luciferase reporter activity was inactive: -0.465 (compound concentration: 200 nM), inactive: -1.5 (compound concentration: 2 uM) and inactive: 1.45 (compound concentration: 10 uM).

`COc1ccc2c(c1)CC[C@H](CN(C)CC(=O)O)[C@@H]2c1ccccc1`: the TEAD-luciferase reporter activity reads like this: (compound concentration: 200 nM) inactive: -0.288; (compound concentration: 2 uM) inactive: 0.298; (compound concentration: 10 uM) inactive: -1.55.

Take `CCCN(CCC)CCc1cccc2c1CC(=O)N2` [ropinirole XR]: the TEAD-luciferase reporter activity (compound concentration: 2 uM) is inactive: 0.217.

`CCCN(CCC)CCc1cccc2c1CC(=O)N2` [ropinirole XR, GSK]: the TEAD-luciferase reporter activity by setting is: (compound concentration: 200 nM) inactive: -0.375; (compound concentration: 10 uM) inactive: -0.714.

As for `COc1ccccc1CN(C[C@@H](Cc1c[nH]c2ccccc12)NC(=O)CN1CCC(N2CCCCC2)CC1)C(C)=O`, the TEAD-luciferase reporter activity was inactive: -0.931 (compound concentration: 200 nM), inactive: 0.749 (compound concentration: 2 uM) and inactive: 2.05 (compound concentration: 10 uM).

Take `Nc1ccc(S(N)(=O)=O)cc1` [Sulfanilamide]: the TEAD-luciferase reporter activity is inactive: -0.233 (compound concentration: 200 nM), inactive: 0.166 (compound concentration: 2 uM) and inactive: 0.0561 (compound concentration: 10 uM).

As to `O=C(Nc1ccc(C(F)(F)F)cc1)C1CCN(C(=O)Cn2c(=O)sc3ccc(Cl)cc32)CC1`, the TEAD-luciferase reporter activity (compound concentration: 200 nM) was inactive: -0.628, the TEAD-luciferase reporter activity (compound concentration: 2 uM) is inactive: -1.99 and the TEAD-luciferase reporter activity (compound concentration: 10 uM) is inactive: 1.08.

For `Cc1cc(C)c2nc(-c3cnc(NCCCC4CCN(C)CC4)nc3C)[nH]c2c1` [Toreforant], the TEAD-luciferase reporter activity (compound concentration: 200 nM) is inactive: -0.607, the TEAD-luciferase reporter activity (compound concentration: 2 uM) was inactive: -0.732 and the TEAD-luciferase reporter activity (compound concentration: 10 uM) is inactive: 1.04.

As for `O=C(Nc1cccc(C(F)(F)F)c1)c1cc(Br)cc(Br)c1O`, the TEAD-luciferase reporter activity reads like this: (compound concentration: 200 nM) inactive: -0.0209; (compound concentration: 2 uM) inactive: -1.99; (compound concentration: 10 uM) inactive: -1.21.

With `COc1cc(Cc2cnc(N)nc2N)cc(OC)c1N(C)C`, the TEAD-luciferase reporter activity by setting is: (compound concentration: 200 nM) inactive: -0.0646; (compound concentration: 2 uM) inactive: -0.66; (compound concentration: 10 uM) inactive: 0.52.

For `Cc1cc2c(CCc3sc(-c4ccc(C(F)(F)F)cc4)nc3C(C)C)noc2cc1OCC(=O)O` [Fonadelpar], the TEAD-luciferase reporter activity reads like this: (compound concentration: 200 nM) inactive: -0.334; (compound concentration: 2 uM) inactive: -0.582; (compound concentration: 10 uM) inactive: -1.29.

On to `CC#Cc1cncc(-c2ccc3c(c2)[C@@]2(N=C(C)C(N)=N2)[C@]2(CC[C@H](OC)CC2)C3)c1` [Lanabecestat], for which the TEAD-luciferase reporter activity runs as follows: (compound concentration: 200 nM) inactive: 0.704; (compound concentration: 2 uM) inactive: -1.21; (compound concentration: 10 uM) inactive: 2.91.

For the compound `C[C@@H]1O[C@@H](OC[C@H]2O[C@@H](Oc3cc4c(O)cc(O)cc4[o+]c3-c3ccc(O)c(O)c3)[C@H](O)[C@@H](O)[C@@H]2O)[C@H](O)[C@H](O)[C@H]1O`, the TEAD-luciferase reporter activity was inactive: 1.12 (compound concentration: 200 nM), inactive: -0.53 (compound concentration: 2 uM) and inactive: 2.22 (compound concentration: 10 uM).

For the compound `O=C(O)Cc1csc(NC(=O)N(C2CCCCC2)C2CCCCC2)n1`, the TEAD-luciferase reporter activity is, setting by setting: (compound concentration: 200 nM) inactive: -0.242; (compound concentration: 2 uM) inactive: -1.29; (compound concentration: 10 uM) inactive: -0.366.

Turning to `Cc1ccc(C)c(OCCCC(C)(C)C(=O)O)c1` [gemfibrozil], the TEAD-luciferase reporter activity (compound concentration: 2 uM) is inactive: -1.14.

On to `Cc1ccc(C)c(OCCCC(C)(C)C(=O)O)c1`, for which the TEAD-luciferase reporter activity by setting is: (compound concentration: 200 nM) inactive: 2.38; (compound concentration: 10 uM) inactive: -0.705.

In the case of `O=c1n(CC2CO2)c(=O)n(CC2CO2)n1CC1CO1` (stereo not given) [Anaxirone], the TEAD-luciferase reporter activity runs as follows: (compound concentration: 200 nM) inactive: -1.5; (compound concentration: 2 uM) inactive: 0.879; (compound concentration: 10 uM) inactive: -0.208.

As for `O=C(OC[C@H]1O[C@H](O[C@H]2O[C@H](COC(=O)C3CCCCC3)[C@@H](O)[C@H](O)[C@H]2O)[C@H](O)[C@@H](O)[C@@H]1O)C1CCCCC1`, the TEAD-luciferase reporter activity is inactive: -0.0694 (compound concentration: 200 nM), inactive: -0.57 (compound concentration: 2 uM) and inactive: -0.137 (compound concentration: 10 uM).

With `O=C(NCC(O)CO)c1c(I)c(C(=O)NCC(O)CO)c(I)c(N(CCO)C(=O)CO)c1I` (stereo not given) [ioversol], the TEAD-luciferase reporter activity was inactive: 0.84 (compound concentration: 200 nM), inactive: 0.534 (compound concentration: 2 uM) and active: 6.82 (compound concentration: 10 uM).

`CCOc1ccc(-c2c(Cl)ncn2-c2ccc(S(N)(=O)=O)cc2)cc1`: the TEAD-luciferase reporter activity by setting is: (compound concentration: 200 nM) inactive: -1.08; (compound concentration: 2 uM) inactive: -0.401; (compound concentration: 10 uM) inactive: 0.32.

For the compound `COCCc1ccc(OCC(O)C(C)(C)N)cc1` (stereo not given), the TEAD-luciferase reporter activity (compound concentration: 200 nM) was inactive: -1.55, the TEAD-luciferase reporter activity (compound concentration: 2 uM) is inactive: -0.949 and the TEAD-luciferase reporter activity (compound concentration: 10 uM) was inactive: 0.049.

Turning to `CCN(CC)CCOCC(O)c1ccc2sccc2c1` (stereo not given), the TEAD-luciferase reporter activity by setting is: (compound concentration: 200 nM) inactive: -0.845; (compound concentration: 2 uM) inactive: -0.573; (compound concentration: 10 uM) inactive: -0.348.

With `Cc1ccc(NC(=O)[C@H]2CCCN(C(=O)c3c(C)cccc3F)[C@H]2c2ccc(NC3CCCC3)cc2)cc1C(F)(F)F`, the TEAD-luciferase reporter activity (compound concentration: 200 nM) is inactive: 0.293, the TEAD-luciferase reporter activity (compound concentration: 2 uM) was inactive: 1.1 and the TEAD-luciferase reporter activity (compound concentration: 10 uM) is inactive: -0.946.

`N=C(N)NC(=O)c1cnccn1` [Pyrazinoylguanidine]: the TEAD-luciferase reporter activity by setting is: (compound concentration: 200 nM) inactive: 0.136; (compound concentration: 2 uM) inactive: -1.95; (compound concentration: 10 uM) inactive: 0.841.
